These are yes or no findings as the source states them, for the method shown. Binding seen in cells or lysates may run through a third protein. Some results given as binding are weak or reduced against the parent protein; the word gives no strength.

Chains of the proteins cited; added tags and fusions are not shown.
UniProt Q16531: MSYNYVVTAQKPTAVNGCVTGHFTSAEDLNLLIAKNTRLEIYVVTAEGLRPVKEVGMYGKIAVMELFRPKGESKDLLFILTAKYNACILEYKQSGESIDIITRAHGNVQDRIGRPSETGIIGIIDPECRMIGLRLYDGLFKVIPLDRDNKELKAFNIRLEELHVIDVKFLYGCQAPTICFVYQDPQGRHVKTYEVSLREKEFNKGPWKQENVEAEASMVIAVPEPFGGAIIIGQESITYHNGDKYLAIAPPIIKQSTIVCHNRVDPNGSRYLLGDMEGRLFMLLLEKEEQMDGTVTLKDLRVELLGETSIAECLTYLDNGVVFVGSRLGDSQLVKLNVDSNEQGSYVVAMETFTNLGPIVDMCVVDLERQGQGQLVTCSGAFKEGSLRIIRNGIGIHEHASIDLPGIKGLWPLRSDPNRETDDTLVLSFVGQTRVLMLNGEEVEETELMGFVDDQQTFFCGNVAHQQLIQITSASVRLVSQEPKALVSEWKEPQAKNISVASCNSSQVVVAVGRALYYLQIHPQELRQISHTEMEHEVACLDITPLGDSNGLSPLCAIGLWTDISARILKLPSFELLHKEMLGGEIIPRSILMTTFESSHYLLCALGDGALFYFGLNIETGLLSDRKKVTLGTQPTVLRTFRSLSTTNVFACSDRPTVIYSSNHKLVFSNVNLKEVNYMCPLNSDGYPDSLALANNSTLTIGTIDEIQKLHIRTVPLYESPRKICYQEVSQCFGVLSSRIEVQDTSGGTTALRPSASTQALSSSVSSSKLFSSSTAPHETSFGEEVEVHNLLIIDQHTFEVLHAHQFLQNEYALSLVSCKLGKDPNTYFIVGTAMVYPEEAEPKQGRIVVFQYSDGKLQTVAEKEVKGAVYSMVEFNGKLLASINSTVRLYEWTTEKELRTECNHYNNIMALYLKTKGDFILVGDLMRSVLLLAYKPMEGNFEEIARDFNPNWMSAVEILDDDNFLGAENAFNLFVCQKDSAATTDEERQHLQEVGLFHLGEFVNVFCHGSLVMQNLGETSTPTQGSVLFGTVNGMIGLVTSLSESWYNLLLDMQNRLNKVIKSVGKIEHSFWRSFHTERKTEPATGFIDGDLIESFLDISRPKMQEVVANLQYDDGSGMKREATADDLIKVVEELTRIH

From paper doi:10.1101/2023.05.09.540020 come the findings set out here.

The experiment deals with DNA Damage Binding 1 (DDB1) protein (human (endogenous in HEK293T)) (UniProt Q16531). As to the kind of experiment: co-IP.

B1: Transcription Termination Factor (TTF1), endogenous (protein, UniProt Q15361 1-905)
chain: MEGESSRFEIHTPVSDKKKKKCSIHKERPQKHSHEIFRDSSLVNEQSQITRRKKRKKDFQHLISSPLKKSRICDETANATSTLKKRKKRRYSALEVDEEAGVTVVLVDKENINNTPKHFRKDVDVVCVDMSIEQKLPRKPKTDKFQVLAKSHAHKSEALHSKVREKKNKKHQRKAASWESQRARDTLPQSESHQEESWLSVGPGGEITELPASAHKNKSKKKKKKSSNREYETLAMPEGSQAGREAGTDMQESQPTVGLDDETPQLLGPTHKKKSKKKKKKKSNHQEFEALAMPEGSQVGSEVGADMQESRPAVGLHGETAGIPAPAYKNKSKKKKKKSNHQEFEAVAMPESLESAYPEGSQVGSEVGTVEGSTALKGFKESNSTKKKSKKRKLTSVKRARVSGDDFSVPSKNSESTLFDSVEGDGAMMEEGVKSRPRQKKTQACLASKHVQEAPRLEPANEEHNVETAEDSEIRYLSADSGDADDSDADLGSAVKQLQEFIPNIKDRATSTIKRMYRDDLERFKEFKAQGVAIKFGKFSVKENKQLEKNVEDFLALTGIESADKLLYTDRYPEEKSVITNLKRRYSFRLHIGRNIARPWKLIYYRAKKMFDVNNYKGRYSEGDTEKLKMYHSLLGNDWKTIGEMVARSSLSVALKFSQISSQRNRGAWSKSETRKLIKAVEEVILKKMSPQELKEVDSKLQENPESCLSIVREKLYKGISWVEVEAKVQTRNWMQCKSKWTEILTKRMTNGRRIYYGMNALRAKVSLIERLYEINVEDTNEIDWEDLASAIGDVPPSYVQTKFSRLKAVYVPFWQKKTFPEIIDYLYETTLPLLKEKLEKMMEKKGTKIQTPAAPKQVFPFRDIFYYEDDSEGEDIEKESEGQAPCMAHACNSSTLGGQGRWII
Regarding B1, the binding entry is given as “binds”.
